# Measured values taken from patent US20060008512A1, “Composition and methods for improved animal performance” (priority 2004, published 2006).
# Where two headings read alike, the source gives them in different places. The source gives many values for each of these; only a part stands here.
# Experiments:
# [1] = test system: Hy-Line W-36 White Leghorn hens
# Excerpt: Experiment 3. […] The photoperiod serves as the primary environmental signal that regulates reproductive function in many avian species. Increasing the photoperiod promotes maturation of the gonads and reproductive tract, whereas reducing the photoperiod causes the gonads and reproductive tract to regress and molting to occur.
# [2] = test system: Hy-Line W-36 White Leghorn hens; remark: listed apart in the source
# Experimental: Experiment 2. […] The photoperiod was 17 hours of light per day (0330 hours to 2030 hours).
# The objective was to use T4 to humanely induce molting in hens that are continuously provided with ad libitum access to palatable feed meeting or exceeding all National Research Council (1994) standards. Developing a fully efficacious yet affordable molting protocol was predicated on determining the minimum effective level for T4 supplementation. Factors that potentially may affect the required level of T4 supplementation include: (1) uncertainty regarding the efficiency of T4 absorption by the gastrointestinal tract, (2) the possibility that continuous dietary ingestion of T4 could trigger substantially different biological responses when compared single daily injections, and (3) the likelihood that daily T4 intake would diminish in parallel with molt-related reductions in feed intake associated with cessation in egg production. A spontaneous and voluntary loss of appetite (anorexia) commonly accompanies seasonal molting and broodiness in a variety of avian species (Berry, 2003; Webster, 2003). Accordingly, the responses of hens to diets containing 10, 20, and 40 mg T4/kg, to bracket the anticipated range of T4 needed to cause an effective molt, were determined.
smiles,measurement,setting,value
"N[C@@H](Cc1cc(I)c(Oc2cc(I)c(O)c(I)c2)c(I)c1)C(=O)O [L-thyroxine, 3,5,3′,5′-tetraiodo-L-thyronine]",Hen-day egg production,"[1]; 20 mg/kg of feed 12 d from day 13, 8 hr light, day 12",93.8%
same,Hen-day egg production,"[1]; 20 mg/kg of feed 12 d from day 13, 8 hr light, day 14",54.2%
same,Hen-day egg production,"[1]; 20 mg/kg of feed 12 d from day 13, 8 hr light, day 16",35.4%
same,Hen-day egg production,"[1]; 20 mg/kg of feed 12 d from day 13, 8 hr light, day 18",29.2%
same,Hen-day egg production,"[1]; 20 mg/kg of feed 12 d from day 13, 8 hr light, day 20",18.8%
same,Hen-day egg production,"[1]; 20 mg/kg of feed 12 d from day 13, 8 hr light, day 22",0.0%
same,Hen-day egg production,"[1]; 20 mg/kg of feed 12 d from day 13, 8 hr light, day 24",0.0%
same,Hen-day egg production,"[1]; 20 mg/kg of feed 12 d from day 13, 8 hr light, day 26",0.0%
same,Hen-day egg production,"[1]; 20 mg/kg of feed 12 d from day 13, 8 hr light, day 28",10.4%
same,Hen-day egg production,"[1]; 20 mg/kg of feed 12 d from day 13, 8 hr light, day 30",6.3%
same,Hen-day egg production,"[1]; 20 mg/kg of feed 12 d from day 13, 8 hr light, day 32",16.7%
same,Hen-day egg production,"[1]; 20 mg/kg of feed 12 d from day 13, 8 hr light, day 34",8.3%
same,Hen-day egg production,"[1]; 20 mg/kg of feed 12 d from day 13, 17 hr light, day 12",91.7%
same,Hen-day egg production,"[1]; 20 mg/kg of feed 12 d from day 13, 17 hr light, day 14",58.3%
same,Hen-day egg production,"[1]; 20 mg/kg of feed 12 d from day 13, 17 hr light, day 16",35.4%
same,Hen-day egg production,"[1]; 20 mg/kg of feed 12 d from day 13, 17 hr light, day 18",31.3%
same,Hen-day egg production,"[1]; 20 mg/kg of feed 12 d from day 13, 17 hr light, day 20",14.6%
same,Hen-day egg production,"[1]; 20 mg/kg of feed 12 d from day 13, 17 hr light, day 22",27.1%
same,Hen-day egg production,"[1]; 20 mg/kg of feed 12 d from day 13, 17 hr light, day 24",4.2%
same,Hen-day egg production,"[1]; 20 mg/kg of feed 12 d from day 13, 17 hr light, day 26",18.8%
same,Hen-day egg production,"[1]; 20 mg/kg of feed 12 d from day 13, 17 hr light, day 28",0.0%
same,Hen-day egg production,"[1]; 20 mg/kg of feed 12 d from day 13, 17 hr light, day 30",29.2%
same,Hen-day egg production,"[1]; 20 mg/kg of feed 12 d from day 13, 17 hr light, day 32",41.7%
same,Hen-day egg production,"[1]; 20 mg/kg of feed 12 d from day 13, 17 hr light, day 34",54.2%
same,Hen-day egg production,"[1]; 40 mg/kg of feed 12 d from day 13, 8 hr light, day 12",83.3%
same,Hen-day egg production,"[1]; 40 mg/kg of feed 12 d from day 13, 8 hr light, day 14",66.7%
same,Hen-day egg production,"[1]; 40 mg/kg of feed 12 d from day 13, 8 hr light, day 16",16.7%
same,Hen-day egg production,"[1]; 40 mg/kg of feed 12 d from day 13, 8 hr light, day 18",8.3%
same,Hen-day egg production,"[1]; 40 mg/kg of feed 12 d from day 13, 8 hr light, day 20",12.5%
same,Hen-day egg production,"[1]; 40 mg/kg of feed 12 d from day 13, 8 hr light, day 22",4.2%
same,Hen-day egg production,"[1]; 40 mg/kg of feed 12 d from day 13, 8 hr light, day 24",8.3%
same,Hen-day egg production,"[1]; 40 mg/kg of feed 12 d from day 13, 8 hr light, day 26",4.2%
same,Hen-day egg production,"[1]; 40 mg/kg of feed 12 d from day 13, 8 hr light, day 28",4.2%
same,Hen-day egg production,"[1]; 40 mg/kg of feed 12 d from day 13, 8 hr light, day 30",8.3%
same,Hen-day egg production,"[1]; 40 mg/kg of feed 12 d from day 13, 8 hr light, day 32",4.2%
same,Hen-day egg production,"[1]; 40 mg/kg of feed 12 d from day 13, 8 hr light, day 34",8.3%
same,Hen-day egg production,"[1]; 40 mg/kg of feed 12 d from day 13, 17 hr light, day 12",66.7%
same,Hen-day egg production,"[1]; 40 mg/kg of feed 12 d from day 13, 17 hr light, day 14",56.3%
same,Hen-day egg production,"[1]; 40 mg/kg of feed 12 d from day 13, 17 hr light, day 16",37.5%
same,Hen-day egg production,"[1]; 40 mg/kg of feed 12 d from day 13, 17 hr light, day 18",16.7%
same,Hen-day egg production,"[1]; 40 mg/kg of feed 12 d from day 13, 17 hr light, day 20",12.5%
same,Hen-day egg production,"[1]; 40 mg/kg of feed 12 d from day 13, 17 hr light, day 22",0.0%
same,Hen-day egg production,"[1]; 40 mg/kg of feed 12 d from day 13, 17 hr light, day 24",0.0%
same,Hen-day egg production,"[1]; 40 mg/kg of feed 12 d from day 13, 17 hr light, day 26",0.0%
same,Hen-day egg production,"[1]; 40 mg/kg of feed 12 d from day 13, 17 hr light, day 28",0.0%
same,Hen-day egg production,"[1]; 40 mg/kg of feed 12 d from day 13, 17 hr light, day 30",0.0%
same,Hen-day egg production,"[1]; 40 mg/kg of feed 12 d from day 13, 17 hr light, day 32",0.0%
same,Hen-day egg production,"[1]; 40 mg/kg of feed 12 d from day 13, 17 hr light, day 34",0.0%
same,Hen-day egg production,"[2]; 10 mg/kg of feed 10 d from day 5, day 20",17%
same,Hen-day egg production,"[2]; 20 mg/kg of feed 10 d from day 5, day 4",75%
same,Hen-day egg production,"[2]; 20 mg/kg of feed 10 d from day 5, day 6",58%
same,Hen-day egg production,"[2]; 20 mg/kg of feed 10 d from day 5, day 8",8%
same,Hen-day egg production,"[2]; 20 mg/kg of feed 10 d from day 5, day 10",8%
same,Hen-day egg production,"[2]; 20 mg/kg of feed 10 d from day 5, day 12",0%
same,Hen-day egg production,"[2]; 20 mg/kg of feed 10 d from day 5, day 14",0%
same,Hen-day egg production,"[2]; 20 mg/kg of feed 10 d from day 5, day 16",0%
same,Hen-day egg production,"[2]; 20 mg/kg of feed 10 d from day 5, day 18",8%
same,Hen-day egg production,"[2]; 20 mg/kg of feed 10 d from day 5, day 20",8%
same,Hen-day egg production,"[2]; 20 mg/kg of feed 10 d from day 5, day 22",17%
same,Hen-day egg production,"[2]; 20 mg/kg of feed 10 d from day 5, day 24",17%
same,Hen-day egg production,"[2]; 20 mg/kg of feed 10 d from day 5, day 26",17%
same,Hen-day egg production,"[2]; 20 mg/kg of feed 10 d from day 5, day 28",33%
same,Hen-day egg production,"[2]; 20 mg/kg of feed 10 d from day 5, day 30",25%
same,Hen-day egg production,"[2]; 40 mg/kg of feed 10 d from day 5, day 4",67%
same,Hen-day egg production,"[2]; 40 mg/kg of feed 10 d from day 5, day 6",33%
same,Hen-day egg production,"[2]; 40 mg/kg of feed 10 d from day 5, day 8",8%
same,Hen-day egg production,"[2]; 40 mg/kg of feed 10 d from day 5, day 10",8%
same,Hen-day egg production,"[2]; 40 mg/kg of feed 10 d from day 5, day 12",0%
same,Hen-day egg production,"[2]; 40 mg/kg of feed 10 d from day 5, day 14",0%
same,Hen-day egg production,"[2]; 40 mg/kg of feed 10 d from day 5, day 16",0%
same,Hen-day egg production,"[2]; 40 mg/kg of feed 10 d from day 5, day 18",0%
same,Hen-day egg production,"[2]; 40 mg/kg of feed 10 d from day 5, day 20",0%
same,Hen-day egg production,"[2]; 40 mg/kg of feed 10 d from day 5, day 22",0%
same,Hen-day egg production,"[2]; 40 mg/kg of feed 10 d from day 5, day 24",0%
same,Hen-day egg production,"[2]; 40 mg/kg of feed 10 d from day 5, day 26",0%
same,Hen-day egg production,"[2]; 40 mg/kg of feed 10 d from day 5, day 28",0%
same,Hen-day egg production,"[2]; 40 mg/kg of feed 10 d from day 5, day 30",0%
